Measurements taken from paper PMC4394509.
These are yes or no findings as the source states them, for the method shown. For some assays here: In cells and extracts the contact can be indirect. Some binding calls cover weakened binding; strength is not graded here.

By UniProt entry, the sequences of proteins in these tests, tags left out.
UniProt Q92674: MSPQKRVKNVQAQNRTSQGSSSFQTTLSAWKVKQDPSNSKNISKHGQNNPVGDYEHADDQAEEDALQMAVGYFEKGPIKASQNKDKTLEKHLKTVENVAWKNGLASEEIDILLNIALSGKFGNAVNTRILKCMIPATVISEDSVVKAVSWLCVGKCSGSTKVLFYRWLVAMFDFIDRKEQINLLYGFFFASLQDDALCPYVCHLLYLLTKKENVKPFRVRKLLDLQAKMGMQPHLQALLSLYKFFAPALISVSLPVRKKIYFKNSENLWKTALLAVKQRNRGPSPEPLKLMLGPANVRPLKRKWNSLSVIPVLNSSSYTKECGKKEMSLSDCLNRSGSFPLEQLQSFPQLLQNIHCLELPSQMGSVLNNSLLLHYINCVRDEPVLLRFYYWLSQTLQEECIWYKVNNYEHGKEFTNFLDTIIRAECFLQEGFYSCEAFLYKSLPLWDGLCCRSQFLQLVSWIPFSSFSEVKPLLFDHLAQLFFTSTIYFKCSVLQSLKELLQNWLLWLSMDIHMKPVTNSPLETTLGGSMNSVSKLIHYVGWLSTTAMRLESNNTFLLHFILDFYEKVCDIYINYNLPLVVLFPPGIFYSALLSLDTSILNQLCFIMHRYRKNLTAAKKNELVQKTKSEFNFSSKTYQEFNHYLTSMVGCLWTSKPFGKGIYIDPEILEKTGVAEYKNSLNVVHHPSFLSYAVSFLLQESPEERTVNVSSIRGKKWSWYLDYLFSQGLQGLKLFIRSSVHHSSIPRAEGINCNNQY
UniProt Q9NSP4: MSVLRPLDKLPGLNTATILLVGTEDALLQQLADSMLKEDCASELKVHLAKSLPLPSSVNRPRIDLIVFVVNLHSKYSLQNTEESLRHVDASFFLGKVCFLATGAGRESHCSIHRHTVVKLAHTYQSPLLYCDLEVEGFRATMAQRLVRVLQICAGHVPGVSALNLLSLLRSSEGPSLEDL

B1: CENP-B labelled at its C-terminus (FRET and FLIM, data not shown) (protein, UniProt P07199 1-599)
chain: MGPKRRQLTFREKSRIIQEVEENPDLRKGEIARRFNIPPSTLSTILKNKRAILASERKYGVASTCRKTNKLSPYDKLEGLLIAWFQQIRAAGLPVKGIILKEKALRIAEELGMDDFTASNGWLDRFRRRHGVVSCSGVARARARNAAPRTPAAPASPAAVPSEGSGGSTTGWRAREEQPPSVAEGYASQDVFSATETSLWYDFLPDQAAGLCGGDGRPRQATQRLSVLLCANADGSEKLPPLVAGKSAKPRAGQAGLPCDYTANSKGGVTTQALAKYLKALDTRMAAESRRVLLLAGRLAAQSLDTSGLRHVQLAFFPPGTVHPLERGVVQQVKGHYRQAMLLKAMAALEGQDPSGLQLGLTEALHFVAAAWQAVEPSDIAACFREAGFGGGPNATITTSLKSEGEEEEEEEEEEEEEEGEGEEEEEEGEEEEEEGGEGEELGEEEEVEEEGDVDSDEEEEEDEESSSEGLEAEDWAQGVVEAGGSFGAYGAQEEAQCPTLHFLEGGEDSDSDSEEEDDEEEDDEDEDDDDDEEDGDEVPVPSFGEAMAYFAMVKRYLTSFPIDDRVQSHILHLEHDLVHVTRKNHARQAGVRGLGHQS

Experiments:
[1] = target: CENP-I (Fluorescence Cross Correlation Spectroscopy) (UniProt Q92674); assay: Fluorescence Cross Correlation Spectroscopy; in the nucleoplasm
[2] = target: CENP-I labelled at its N-terminus (FRET and FLIM, data not shown) (UniProt Q92674); assay: FRET or BRET; acceptor-bleaching FRET and Fluorescence Lifetime Imaging (FLIM); data not shown

| binding [1] | binding [2] | Molecule |
| --- | --- | --- |
| binds |  | CENP-M (Fluorescence Cross Correlation Spectroscopy) (from UniProt Q9NSP4 1-180) |
|  | binds | B1 |
